Measured values published in PMC11207335, “In Vitro Metabolism and Transport Characteristics of Zastaprazan” (Pharmaceutics, 2024).

Assay: Apparent permeability in Caco-2 cells
Type: in vitro ADME
Conditions: human
Procedure: Caco-2 cells (passage no. 41–42) were grown in tissue culture flasks containing Dulbecco’s Modified Eagle Medium supplemented with 20% FBS, 1% nonessential amino acids, and 1% penicillin–streptomycin. […] The culture medium was replaced every other day. On the day of the experiment, the growth medium was discarded, and the attached cells were washed with prewarmed HBSS (pH 7.4) and preincubated with HBSS for 20 min at 37 °C. […] Aliquots (30 μL) of each sample were vortex-mixed with 90 μL of IS solution for 1 min, and then centrifugation was performed at 13,500 rpm at 4 °C for 5 min. Aliquots (5 μL) of the supernatant were injected into the LC-MS/MS for analysis.

Papp A→B at 1 h, 4 µM (Caco-2, pH 7.4): 0.11 ± 0.01 ×10⁻⁶ cm/s
Papp B→A at 1 h, 4 µM (Caco-2, pH 7.4): 0.11 ± 0.01 ×10⁻⁶ cm/s
efflux ratio at 1 h, 4 µM (pH 7.4, Caco-2, mean Papp,BA / mean Papp,AB, read-out: ER): 0.98
SMILES: CC(C)NCC(O)COc1ccc(CC(N)=O)cc1 (stereo not drawn) [Atenolol]
